Measurements as given in publication PMC5805366.
No constants are given. Whether binding was seen depends on the method and setting. Binding seen in cells or lysates may run through a third protein.

Sequences of proteins named here, by UniProt entry; tags and fusion partners are left off.
UniProt P16790: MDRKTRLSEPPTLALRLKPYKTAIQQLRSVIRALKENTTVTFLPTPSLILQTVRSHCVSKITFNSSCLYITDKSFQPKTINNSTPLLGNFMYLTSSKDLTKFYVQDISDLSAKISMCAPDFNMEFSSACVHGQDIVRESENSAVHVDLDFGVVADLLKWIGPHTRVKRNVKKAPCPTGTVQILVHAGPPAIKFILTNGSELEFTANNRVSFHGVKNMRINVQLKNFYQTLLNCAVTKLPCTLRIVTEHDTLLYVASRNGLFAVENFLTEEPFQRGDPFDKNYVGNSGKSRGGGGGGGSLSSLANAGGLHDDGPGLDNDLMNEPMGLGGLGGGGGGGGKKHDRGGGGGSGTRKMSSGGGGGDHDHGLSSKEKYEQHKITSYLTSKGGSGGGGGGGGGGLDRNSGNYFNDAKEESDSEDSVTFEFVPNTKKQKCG
UniProt P42224: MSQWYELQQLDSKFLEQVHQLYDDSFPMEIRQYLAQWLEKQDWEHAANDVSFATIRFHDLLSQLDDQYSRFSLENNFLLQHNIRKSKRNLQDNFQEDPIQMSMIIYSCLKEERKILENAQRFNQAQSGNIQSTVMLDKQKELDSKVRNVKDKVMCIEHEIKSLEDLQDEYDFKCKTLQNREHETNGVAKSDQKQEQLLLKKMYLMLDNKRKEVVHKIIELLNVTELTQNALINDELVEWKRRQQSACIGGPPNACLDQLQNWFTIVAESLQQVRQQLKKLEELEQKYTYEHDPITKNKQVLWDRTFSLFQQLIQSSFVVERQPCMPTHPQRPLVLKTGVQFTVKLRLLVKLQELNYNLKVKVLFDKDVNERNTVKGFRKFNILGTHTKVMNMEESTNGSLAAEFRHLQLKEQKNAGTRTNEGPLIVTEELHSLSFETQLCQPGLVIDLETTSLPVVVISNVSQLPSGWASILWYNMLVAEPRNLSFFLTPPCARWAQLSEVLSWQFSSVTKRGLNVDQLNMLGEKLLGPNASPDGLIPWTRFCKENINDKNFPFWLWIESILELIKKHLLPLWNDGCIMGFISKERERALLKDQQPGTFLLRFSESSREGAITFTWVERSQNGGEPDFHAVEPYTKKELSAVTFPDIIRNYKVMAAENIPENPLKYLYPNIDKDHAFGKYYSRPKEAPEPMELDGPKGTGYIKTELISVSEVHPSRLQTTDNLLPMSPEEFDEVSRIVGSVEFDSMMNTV

Legend:
[1] = molecular target: T1, endogenous human Nmi (human (endogenous in U251 and human foreskin fibroblasts)) (UniProt Q13287); assay: co-IP; U251 cells infected with HCMV (MOI = 1), lysates at 48-72 h postinfection; IP with anti-UL23, anti-UL44 or anti-Nmi, blots for UL23, UL44 and Nmi
T1 sequence: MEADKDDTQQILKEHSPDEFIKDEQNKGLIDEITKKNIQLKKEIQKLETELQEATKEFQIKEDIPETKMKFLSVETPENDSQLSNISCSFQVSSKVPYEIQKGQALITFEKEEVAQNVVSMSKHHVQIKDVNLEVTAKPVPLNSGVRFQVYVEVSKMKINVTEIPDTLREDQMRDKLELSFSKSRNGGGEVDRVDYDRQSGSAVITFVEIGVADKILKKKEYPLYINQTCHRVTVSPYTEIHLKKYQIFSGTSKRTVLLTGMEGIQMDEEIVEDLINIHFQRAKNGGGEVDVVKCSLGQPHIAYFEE

[2] = molecular target: T1, endogenous human Nmi (human (endogenous in U251 and human foreskin fibroblasts)); assay: condition: only in fibroblasts infected with viruses that express UL23; co-IP; IFN-γ-treated human foreskin fibroblasts infected with TowneBAC or the rescued viruses
[3] = molecular target: T1, endogenous human Nmi (human (endogenous in U251 and human foreskin fibroblasts)); assay: condition: only in cells with pCMV-FLAG-UL23, which express FLAG-tagged UL23; co-IP; cells containing pCMV-FLAG-UL23, as for U251-UL23 cells
[4] = molecular target: T1, endogenous human Nmi (human (endogenous in U251 and human foreskin fibroblasts)); assay: condition: only in cells infected with viruses that express UL23 (TowneBAC, R-ΔUL23, R-stop); co-IP; IFN-γ-treated U251 cells infected with TowneBAC or the rescued viruses R-ΔUL23 and R-stop (MOI = 1) at 12 h post-treatment, lysates at 24-48 h postinfection; IP with anti-UL23, anti-Nmi or …
[5] = molecular target: T1, endogenous human Nmi (human (endogenous in U251 and human foreskin fibroblasts)); assay: condition: only in U251-UL23 cells, which express UL23; co-IP; U251-UL23 cells (pCDNA-UL23) treated with IFN-γ (1000 U/ml) for 12 h; IP with anti-UL23, anti-Nmi or anti-STAT1

Substance	binding [1]	binding [2]	binding [3]	binding [4]	binding [5]
HCMV polymerase processivity factor, UL44 protein (from UniProt P16790 1-433)	no binding	–	–	–	–
endogenous human STAT1 (from UniProt P42224 1-750)	–	no binding	no binding	no binding	no binding
